Source: article PMC5835904
Results are given in words; binding and its absence hold for the method and conditions named. Binding seen in cells or lysates may run through a third protein. Some results given as binding are weak or reduced against the parent protein; the word gives no strength.

The chains behind the UniProt entries cited, without tags or fusion partners. Where a name states a change or a piece, a line headed by the entry shows the natural chain unless it says otherwise. Residues count along the entry.
UniProt P62258: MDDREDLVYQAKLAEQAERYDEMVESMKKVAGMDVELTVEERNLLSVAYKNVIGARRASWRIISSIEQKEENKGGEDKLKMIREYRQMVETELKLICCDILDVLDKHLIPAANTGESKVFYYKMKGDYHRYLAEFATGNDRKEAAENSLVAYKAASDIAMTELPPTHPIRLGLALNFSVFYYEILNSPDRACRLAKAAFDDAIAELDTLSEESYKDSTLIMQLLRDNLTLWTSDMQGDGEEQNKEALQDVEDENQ
UniProt Q5S007: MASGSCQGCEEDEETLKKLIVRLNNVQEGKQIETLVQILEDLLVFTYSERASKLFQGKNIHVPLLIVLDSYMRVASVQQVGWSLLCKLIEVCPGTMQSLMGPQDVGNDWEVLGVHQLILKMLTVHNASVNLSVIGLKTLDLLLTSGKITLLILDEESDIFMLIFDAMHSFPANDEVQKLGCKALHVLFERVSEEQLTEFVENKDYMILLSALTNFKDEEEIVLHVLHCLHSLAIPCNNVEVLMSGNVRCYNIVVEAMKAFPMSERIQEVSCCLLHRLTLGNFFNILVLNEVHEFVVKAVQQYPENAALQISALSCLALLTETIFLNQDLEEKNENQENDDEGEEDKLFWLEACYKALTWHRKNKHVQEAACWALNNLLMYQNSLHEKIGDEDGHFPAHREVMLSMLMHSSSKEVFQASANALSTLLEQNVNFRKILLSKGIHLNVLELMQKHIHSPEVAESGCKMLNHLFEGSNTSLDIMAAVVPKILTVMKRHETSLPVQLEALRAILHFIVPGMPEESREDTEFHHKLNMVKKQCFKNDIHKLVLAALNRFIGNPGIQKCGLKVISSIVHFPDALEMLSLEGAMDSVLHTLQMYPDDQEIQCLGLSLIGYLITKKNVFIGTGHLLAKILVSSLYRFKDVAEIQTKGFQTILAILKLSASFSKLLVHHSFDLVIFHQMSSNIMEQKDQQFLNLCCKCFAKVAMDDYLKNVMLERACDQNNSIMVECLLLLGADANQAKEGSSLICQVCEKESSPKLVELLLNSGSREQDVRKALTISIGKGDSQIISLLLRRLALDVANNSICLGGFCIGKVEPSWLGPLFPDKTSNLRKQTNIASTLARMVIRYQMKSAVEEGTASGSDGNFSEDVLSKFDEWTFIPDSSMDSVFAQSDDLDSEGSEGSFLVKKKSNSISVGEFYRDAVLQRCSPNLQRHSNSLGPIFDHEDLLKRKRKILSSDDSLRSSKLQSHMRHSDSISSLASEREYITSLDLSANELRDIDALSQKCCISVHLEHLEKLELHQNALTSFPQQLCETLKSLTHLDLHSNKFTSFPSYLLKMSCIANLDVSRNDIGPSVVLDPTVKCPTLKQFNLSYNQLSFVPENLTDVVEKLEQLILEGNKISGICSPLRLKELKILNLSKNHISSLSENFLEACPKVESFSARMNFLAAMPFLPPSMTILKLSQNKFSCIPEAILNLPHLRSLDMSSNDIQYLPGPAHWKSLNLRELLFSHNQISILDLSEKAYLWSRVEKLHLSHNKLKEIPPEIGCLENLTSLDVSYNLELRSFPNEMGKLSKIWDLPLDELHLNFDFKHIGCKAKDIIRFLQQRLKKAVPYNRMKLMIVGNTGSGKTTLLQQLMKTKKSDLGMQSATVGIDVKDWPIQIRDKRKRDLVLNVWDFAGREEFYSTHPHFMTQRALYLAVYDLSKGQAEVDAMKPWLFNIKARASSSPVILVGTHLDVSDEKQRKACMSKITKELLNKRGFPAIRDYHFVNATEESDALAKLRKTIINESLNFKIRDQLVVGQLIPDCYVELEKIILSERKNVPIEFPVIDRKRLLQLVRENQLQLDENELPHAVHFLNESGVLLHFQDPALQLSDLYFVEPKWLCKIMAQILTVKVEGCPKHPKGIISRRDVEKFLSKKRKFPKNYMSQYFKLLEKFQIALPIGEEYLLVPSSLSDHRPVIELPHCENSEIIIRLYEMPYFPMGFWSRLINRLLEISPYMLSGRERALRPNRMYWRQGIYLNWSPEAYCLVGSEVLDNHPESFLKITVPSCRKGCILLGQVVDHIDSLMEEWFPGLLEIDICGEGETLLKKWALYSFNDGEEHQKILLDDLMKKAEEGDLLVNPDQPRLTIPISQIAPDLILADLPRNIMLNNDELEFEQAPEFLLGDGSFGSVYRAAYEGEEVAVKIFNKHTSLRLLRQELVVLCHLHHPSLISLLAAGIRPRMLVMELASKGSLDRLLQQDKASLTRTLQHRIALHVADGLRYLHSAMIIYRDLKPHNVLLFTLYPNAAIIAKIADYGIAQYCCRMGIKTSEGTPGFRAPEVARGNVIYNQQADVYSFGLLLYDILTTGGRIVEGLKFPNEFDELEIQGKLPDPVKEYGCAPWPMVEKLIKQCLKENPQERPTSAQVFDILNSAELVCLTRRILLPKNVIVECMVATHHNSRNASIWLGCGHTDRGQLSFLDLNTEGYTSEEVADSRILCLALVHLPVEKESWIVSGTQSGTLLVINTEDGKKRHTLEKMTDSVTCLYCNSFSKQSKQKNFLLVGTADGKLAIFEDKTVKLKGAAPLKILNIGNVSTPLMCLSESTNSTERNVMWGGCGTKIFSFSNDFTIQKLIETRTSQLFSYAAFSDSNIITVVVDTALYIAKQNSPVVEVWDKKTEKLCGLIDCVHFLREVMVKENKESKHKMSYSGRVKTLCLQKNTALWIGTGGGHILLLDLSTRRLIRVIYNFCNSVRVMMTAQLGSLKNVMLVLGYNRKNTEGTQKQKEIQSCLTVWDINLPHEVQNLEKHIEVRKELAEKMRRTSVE
GST-LRRK2 armadillo domain (aa 1-397) WT: residues 1-397 of Q5S007
UniProt Q8K1M6: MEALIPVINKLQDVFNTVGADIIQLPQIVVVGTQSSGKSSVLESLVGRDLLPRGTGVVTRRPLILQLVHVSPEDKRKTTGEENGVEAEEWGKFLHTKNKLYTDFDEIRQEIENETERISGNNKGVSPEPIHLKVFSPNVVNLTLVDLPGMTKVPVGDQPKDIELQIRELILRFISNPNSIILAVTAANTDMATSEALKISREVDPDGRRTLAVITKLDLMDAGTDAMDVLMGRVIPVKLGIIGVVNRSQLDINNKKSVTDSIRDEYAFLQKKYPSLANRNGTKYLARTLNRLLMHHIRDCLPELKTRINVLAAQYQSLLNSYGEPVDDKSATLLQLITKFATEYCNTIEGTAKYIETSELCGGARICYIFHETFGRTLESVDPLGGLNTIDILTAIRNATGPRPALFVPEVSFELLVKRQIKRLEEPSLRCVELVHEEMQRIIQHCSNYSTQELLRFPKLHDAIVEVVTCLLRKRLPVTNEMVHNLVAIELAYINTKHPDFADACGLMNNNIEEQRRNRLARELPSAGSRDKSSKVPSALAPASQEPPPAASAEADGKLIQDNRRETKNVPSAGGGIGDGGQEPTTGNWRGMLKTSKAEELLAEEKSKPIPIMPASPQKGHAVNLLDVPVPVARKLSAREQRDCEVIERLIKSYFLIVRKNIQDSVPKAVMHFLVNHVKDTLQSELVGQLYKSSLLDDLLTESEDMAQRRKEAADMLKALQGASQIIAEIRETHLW

Experiments:
Strep-FLAG 14-3-3ε = Strep-FLAG 14-3-3ε (UniProt P62258); experiment: co-IP; N2A cells co-expressing FLAG-14-3-3ε and myc-LRRK2 variant; 14-3-3ε immobilised on anti-FLAG beads; bound myc-LRRK2 seen by western blot
[1] = target: GST-LRRK2 armadillo domain (aa 1-397) WT (human) (UniProt Q5S007); experiment: pull-down; 5 μg GST fusion protein on glutathione-sepharose, incubated with adult mouse brain lysate (1 mg total protein); washed with 300 mM NaCl, 50 mM Tris-HCl pH 7.4; blot with anti-DRP1 and anti-P-Ser616 DRP1; only the target purified

binding (Strep-FLAG 14-3-3ε) | binding [1] | Substance
binds |  | myc-tagged LRRK2 WT (full-length myc-hLRRK2) (from UniProt Q5S007 1-2527)
binds |  | myc-tagged LRRK2 E193K variant (from UniProt Q5S007 1-2527)
 | binds | phospho-616 DRP1 from adult mouse brain lysate (from UniProt Q8K1M6 1-736)
 | binds | DRP1 (total) from adult mouse brain lysate (from UniProt Q8K1M6 1-736)
